# Data source: PubChem BioAssay AID1259297 (Sanger Institute, 2017)
# Test: 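siRNA screen across the kinome seeking drug partners in cells of colorectal cancer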 (primary screen)
# System: human RCM1 colorectal cancer cell line
# Reagents: siRNA pool against human genes
# Challenge: separate arms: DMSO vehicle, or one anchor drug at a mild dose: BYL719 1 µM, cetuximab 5 µg/ml, trametinib 10 nM
# Read-out: 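Viability per well relative to a non-targeting pool, mean of replicates; robust z-score for knock-down alone; synergy score with BYL719, cetuximab or trametinib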
# Direction: viability z-score, knock-down alone: higher = more viable cells than non-targeting controls; viability, knock-down alone (DMSO): higher = more viable cells; synergy score with trametinib: higher = stronger combined killing with trametinib; synergy score with BYL719: higher = stronger combined killing with BYL719; synergy score with cetuximab: higher = stronger combined killing with cetuximab
# Call rule: 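Essential when the viability robust z-score for knock-down alone is below -3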
# Calls: active = essential when knocked down alone; inactive = no clear loss of viability alone
# The deposit covers 794 reagents; shown is a part drawn at random. Of all reagents, 13 (1.6%) are marked active. 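Calls reflect knock-down without drug only; drug synergy is judged separately, with scores above 0.15 counted as synergy.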 Entries without a mark were called inactive. No viability above 1 is reported: the scale is capped. Not stated in the record: the amount of reagent, the time to read-out.
gene knocked down,"viability z-score, knock-down alone","viability, knock-down alone (DMSO) (fraction of control)",synergy score with trametinib,synergy score with BYL719,synergy score with cetuximab
MAP3K6,0.9,1,0.0374,-0.0374,-0.08
CLK4,0.517,0.964,-0.0122,0.0209,-0.0816
TNK1,-0.0648,0.91,-0.232,-0.0602,-0.0656
UHMK1,0.163,0.932,-0.0432,-0.0444,-0.0412
CDKN2B,0.9,1,0.00196,0.0273,-0.118
SMAD4,-0.763,0.846,-0.048,-0.0451,-0.0968
DGKI,0.449,0.958,-0.00229,-0.112,-0.155
FOXP1,-0.623,0.859,0.0684,0.039,-0.109
TRIB1,0.9,1,0.0643,-0.0257,-0.118
PIK3R1,0.9,1,0.0217,-0.0554,-0.118
INSRR,0.618,0.974,-0.00797,-0.0323,-0.0689
KMT2B,0.9,1,-0.0604,-0.0535,-0.0703
PRKD1,0.0151,0.918,0.00504,-0.0258,0.072
PRKAR1A,0.9,1,0.0513,-0.0185,0.0431
NME7,0.808,0.991,-0.0836,-0.0776,-0.126
PIKFYVE,0.9,1,-0.0715,-0.0728,-0.0224
ULK2,-0.407,0.879,0.0961,-0.119,-0.104
KCNH8,-0.917,0.831,0.143,-0.104,-0.0059
TSSK6,-0.442,0.875,0.109,-0.0154,-0.00709
CKMT2,0.339,0.948,0.0159,-0.0557,-0.00957
PAPSS1,0.781,0.989,-0.0855,-0.0368,-0.128
PRPS1L1,0.583,0.971,0.0507,-0.00309,-0.0178
STK40,-0.0963,0.907,-0.0473,0.0505,0.0155
MATK,0.713,0.983,0.0997,0.0879,0.0235
NEK3,-0.331,0.886,0.0722,-0.12,-0.183
CHKA,-0.816,0.841,0.0489,-0.0679,-0.00877
SPHK2,-0.0817,0.909,-0.0135,-0.0827,-0.199
AK7,0.58,0.97,-0.131,-0.1,-0.144
MAPK8,0.713,0.983,0.0815,0.0894,-0.105

Continued; the last 5 above are carried over.
gene knocked down,"viability z-score, knock-down alone","viability, knock-down alone (DMSO) (fraction of control)",synergy score with trametinib,synergy score with BYL719,synergy score with cetuximab
NEK3,-0.331,0.886,0.0722,-0.12,-0.183
CHKA,-0.816,0.841,0.0489,-0.0679,-0.00877
SPHK2,-0.0817,0.909,-0.0135,-0.0827,-0.199
AK7,0.58,0.97,-0.131,-0.1,-0.144
MAPK8,0.713,0.983,0.0815,0.0894,-0.105
MAP3K14,-0.687,0.853,-0.0974,0.0776,-0.0376
WNK3,-0.526,0.868,0.0383,-0.0719,-0.235
NR4A2,-2.92,0.646,0.0725,-0.00496,-0.0123
PRKAG2,0.9,1,0.0443,-0.0306,-0.0666
PTK7,-3.21 (active),0.619,-0.0479,-0.0699,0.0731
MARK4,0.492,0.962,0.103,0.0114,-0.0949
PRKAG1,-0.129,0.904,0.0268,-0.0291,-0.103
FLT3,0.422,0.956,-0.132,-0.104,-0.157
DBF4,0.9,1,-0.0986,-0.0728,-0.118
RPS6KA3,0.27,0.942,-0.122,0.0315,-0.126
RBM10,0.288,0.943,0.0903,0.0612,0.0423
CSNK2A2,-2.06,0.725,0.0739,0.0115,0.0154
PRKD2,0.9,1,-0.0474,-0.0641,-0.0808
GRK6,-0.556,0.865,-0.0079,-0.037,-0.105
DAPK2,-0.276,0.891,-0.0658,-0.0848,-0.0758
NME6,-2.7,0.666,0.00314,0.0149,-0.106
PHKG1,-1.18,0.807,0.0411,-0.116,-0.244
MAP3K1,0.9,1,0.0163,0.0159,-0.118
TP53,-1.4,0.786,0.144,-0.0881,0.0803
EPHB4,0.517,0.964,0.0836,0.0261,-0.00821
CDKL4,-0.489,0.871,0.18,0.0139,0.00556
